In patent publication US20160317391A1, “MEDIA MILLING PROCESS FOR THE MANUFACTURE OF ACTIVE PHARMACEUTICAL INGREDIENTS IN PROPELLANTS” (MERCK SHARP & DOHME CORP., priority 2013, published 2016):

[1] = accelerated conditions of stability

SMILES	period stable at accelerated conditions of stability (accelerated conditions of humidity (75%) and temperature (40° C.))	particle growth under accelerated conditions of stability [1]	PSD measurability after exposure beyond 24 h (75% RH and 40° C., significant particle growth)	time within which particles grew on exposure to accelerated conditions [1] [h]
C[N+]1(C)CCC(OC(=O)C(O)(c2ccccc2)C2CCCC2)C1.[Br-] (stereo not shown) [HFA-LabRAM milled GP, glycopyrrolate bromide]	over 4 weeks	did not exhibit noticeable particle growth for up to a month		
C[N+]1(C)CCC(OC(=O)C(O)(c2ccccc2)C2CCCC2)C1.[Br-] (stereo not shown) [jet milled GP, glycopyrrolate bromide]			immeasurable	≤ 6
